# Measurements published in the supplement of paper PMC4604168 (melanoma cell lines).
# The list shows a part of the results. Many values rest on one well or one pass, so single values are uncertain.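 The apoptosis fraction was the count of cleaved-PARP antibody-stained nuclei relative to all DNA-stained nuclei, imaged in 1,536-well plates. Screening doses were set so most cells survived, and baseline and induced cleaved-PARP levels vary greatly across cell lines.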
# Columns and labels:
# Experiment in all cases: cleaved PARP positive nuclei fraction relative to DMSO control; melanoma cells; higher = more apoptosis
# Settings in all cases: library dose: low library concentration; 72 h
# 501Mel = test system: 501Mel
# A101D = test system: A101D
# A2058 = test system: A2058
# A375 = test system: A375
# C32 = test system: C32
# CBRC008 = test system: CBRC008 (line from a melanoma biopsy)
# CBRC013 = test system: CBRC013 (line from a melanoma biopsy)
# CBRC014 = test system: CBRC014 (line from a melanoma biopsy)
# CBRC016 = test system: CBRC016 (line from a melanoma biopsy)
# CBRC017 = test system: CBRC017 (line from a melanoma biopsy)
Compound,cleaved PARP positive nuclei fraction (501Mel),cleaved PARP positive nuclei fraction (A101D),cleaved PARP positive nuclei fraction (A2058),cleaved PARP positive nuclei fraction (A375),cleaved PARP positive nuclei fraction (C32),cleaved PARP positive nuclei fraction (CBRC008),cleaved PARP positive nuclei fraction (CBRC013),cleaved PARP positive nuclei fraction (CBRC014),cleaved PARP positive nuclei fraction (CBRC016),cleaved PARP positive nuclei fraction (CBRC017)
"CC(=O)O[C@@]12CO[C@@H]1C[C@H](O)[C@@]1(C)C(=O)[C@H](O)C3=C(C)[C@@H](OC(=O)[C@H](O)[C@@H](NC(=O)OC(C)(C)C)c4ccccc4)C[C@@](O)([C@@H](OC(=O)c4ccccc4)[C@H]21)C3(C)C [Docetaxel] + COc1cc2c(Oc3ccc4[nH]c(C)cc4c3F)ncnc2cc1OCCCN1CCCC1 [cediranib] (first compound 0.0001 µM, partner dose 0.4 µM)",346%,125%,7360%,15400%,503%,902%,121%,98.2%,368%,116%
"NC(=O)c1ccc(N(C(N)=O)c2c(F)cccc2F)nc1-c1ccc(F)cc1F + CC1(C)NC(=O)N(c2ccc([N+](=O)[O-])c(C(F)(F)F)c2)C1=O [nilutamide] (first compound 0.4 µM, partner dose 1 µM)",444%,71.6%,76.6%,117%,76.7%,139%,84.5%,65.3%,74.3%,91%
"CCN(CC)CCNC(=O)c1c(C)[nH]c(/C=C2\C(=O)Nc3ccc(F)cc32)c1C [sunitinib] + COc1cc(Nc2ncc(F)c(Nc3ccc4c(n3)NC(=O)C(C)(C)O4)n2)cc(OC)c1OC [Tamatinib] (first compound 0.4 µM, partner dose 0.4 µM)",106%,188%,159%,96.2%,78.8%,293%,304%,83.7%,97.8%,90%
"CC1(C)CCC(c2ccc(Cl)cc2)=C(CN2CCN(c3ccc(C(=O)NS(=O)(=O)c4ccc(N[C@H](CCN5CCOCC5)CSc5ccccc5)c(S(=O)(=O)C(F)(F)F)c4)cc3)CC2)C1 + NC(=O)Nc1cc(-c2cccc(F)c2)sc1C(=O)N[C@H]1CCCNC1 [AZD7762] (first compound 0.4 µM, partner dose 0.02 µM)",214%,202%,139%,1960%,858%,306%,85.4%,340%,569%,276%
"CN(c1ncccc1CNc1nc(Nc2ccc3c(c2)CC(=O)N3)ncc1C(F)(F)F)S(C)(=O)=O + COc1cc(Nc2ncc(F)c(Nc3ccc4c(n3)NC(=O)C(C)(C)O4)n2)cc(OC)c1OC [Tamatinib] (first compound 0.08 µM, partner dose 0.4 µM)",108%,95.9%,273%,161%,119%,83.5%,118%,97.9%,131%,75.3%
"CCCCCCCCc1ccc(CCC(N)(CO)CO)cc1 [fingolimod] + Cc1cc(N2CCOCC2)cc2[nH]c(-c3c(NC[C@@H](O)c4cccc(Cl)c4)cc[nH]c3=O)nc12 [BMS536924] (first compound 2 µM, partner dose 0.2 µM)",594%,296%,96.2%,201%,193%,124%,129%,72.7%,46.8%,121%
"CS(=O)(=O)c1ccc(C(=O)Nc2ccc(Cl)c(-c3ccccn3)c2)c(Cl)c1 [vismodegib] + NC(=O)Nc1cc(-c2cccc(F)c2)sc1C(=O)N[C@H]1CCCNC1 [AZD7762] (first compound 1 µM, partner dose 0.02 µM)",160%,261%,61.1%,201%,64.1%,67.6%,125%,79.3%,121%,97.8%
"Cn1sc(=O)n(Cc2ccccc2)c1=O + COc1cc2c(Oc3ccc4[nH]c(C)cc4c3F)ncnc2cc1OCCCN1CCCC1 [cediranib] (first compound 0.4 µM, partner dose 0.4 µM)",77.9%,40.8%,32.4%,74.5%,74.9%,115%,93.4%,83%,78%,95.8%
"CC(=O)O[C@@]12CO[C@@H]1C[C@H](O)[C@@]1(C)C(=O)[C@H](O)C3=C(C)[C@@H](OC(=O)[C@H](O)[C@@H](NC(=O)OC(C)(C)C)c4ccccc4)C[C@@](O)([C@@H](OC(=O)c4ccccc4)[C@H]21)C3(C)C [Docetaxel] + CN(C)S(=O)(=O)c1ccc2c(c1)/C(=C/c1cc3c([nH]1)CCCC3)C(=O)N2 [SU6656] (first compound 0.0001 µM, partner dose 0.4 µM)",108%,92.4%,8880%,14800%,543%,222%,78.4%,125%,721%,148%
"CS(=O)(=O)c1ccc(C(=O)Nc2ccc(Cl)c(-c3ccccn3)c2)c(Cl)c1 [vismodegib] + OCCn1cc(-c2cnc3nnn(Cc4ccc5ncccc5c4)c3n2)cn1 [PF04217903] (first compound 1 µM, partner dose 1 µM)",47.6%,70%,59.6%,95.6%,59.7%,120%,123%,82.4%,279%,64.2%
"C[C@@H](N)c1ccc(C(=O)Nc2ccnc3[nH]ccc23)cc1 + OCCn1cc(-c2cnc3nnn(Cc4ccc5ncccc5c4)c3n2)cn1 [PF04217903] (first compound 0.4 µM, partner dose 1 µM)",78.1%,132%,79.9%,187%,52.5%,34.2%,102%,139%,176%,161%
"Cn1sc(=O)n(Cc2ccccc2)c1=O + Cc1cc(N2CCOCC2)cc2[nH]c(-c3c(NC[C@@H](O)c4cccc(Cl)c4)cc[nH]c3=O)nc12 [BMS536924] (first compound 0.4 µM, partner dose 0.2 µM)",89.3%,130%,95.8%,188%,116%,186%,122%,93.7%,68.4%,106%
"NC(=O)c1ccc(N(C(N)=O)c2c(F)cccc2F)nc1-c1ccc(F)cc1F + C[C@@H]1CCN(C(=O)CC#N)C[C@@H]1N(C)c1ncnc2[nH]ccc12 [CP690550] (first compound 0.4 µM, partner dose 1 µM)",66%,81.7%,99.7%,73.5%,135%,198%,103%,83.8%,83.7%,91.7%
"NC(=O)c1ccc(N(C(N)=O)c2c(F)cccc2F)nc1-c1ccc(F)cc1F + Cn1cncc1[C@@](N)(c1ccc(Cl)cc1)c1ccc2c(c1)c(-c1cccc(Cl)c1)cc(=O)n2C [tipifarnib] (first compound 0.4 µM, partner dose 0.01 µM)",97.6%,84.4%,67%,113%,163%,55.3%,128%,94%,132%,114%
"C[C@@H](N)c1ccc(C(=O)Nc2ccnc3[nH]ccc23)cc1 + O=C(CCCCCCC(=O)Nc1ccccc1)NO [vorinostat] (first compound 0.4 µM, partner dose 0.08 µM)",40.1%,80.2%,159%,30.5%,105%,52.4%,108%,96.2%,208%,99.2%
"CCN(CC)CCNC(=O)c1c(C)[nH]c(/C=C2\C(=O)Nc3ccc(F)cc32)c1C [sunitinib] + Cc1ccc(NC(=O)c2cccc(N(C)C)c2)cc1NC(=O)c1ccc(O)cc1 [ZM336372] (first compound 0.4 µM, partner dose 2 µM)",82.2%,87.9%,37.7%,478%,56.8%,86%,202%,91%,184%,246%
"Cn1cnc2c(F)c(Nc3ccc(Br)cc3Cl)c(C(=O)NOCCO)cc21 [selumetinib] + C=CCn1c(=O)c2cnc(Nc3ccc(N4CCN(C)CC4)cc3)nc2n1-c1cccc(C(C)(C)O)n1 [MK1775] (first compound 0.015 µM, partner dose 0.02 µM)",125%,98.6%,123%,50.3%,100%,120%,106%,85.4%,112%,116%
"CN(c1ncccc1CNc1nc(Nc2ccc3c(c2)CC(=O)N3)ncc1C(F)(F)F)S(C)(=O)=O + CN(C)S(=O)(=O)c1ccc2c(c1)/C(=C/c1cc3c([nH]1)CCCC3)C(=O)N2 [SU6656] (first compound 0.08 µM, partner dose 0.4 µM)",96.6%,109%,123%,257%,90.7%,82.7%,159%,102%,261%,383%
"Cn1sc(=O)n(Cc2ccccc2)c1=O + C=CCn1c(=O)c2cnc(Nc3ccc(N4CCN(C)CC4)cc3)nc2n1-c1cccc(C(C)(C)O)n1 [MK1775] (first compound 0.4 µM, partner dose 0.02 µM)",59%,99.7%,87.4%,83.7%,47.1%,63.2%,88.1%,116%,36.2%,123%
"NC(=O)c1ccc(N(C(N)=O)c2c(F)cccc2F)nc1-c1ccc(F)cc1F + O=C(O)c1ccc(-c2c[nH]c3ncc(-c4ccccc4)cc23)cc1C1CCCC1 [GSK650394] (first compound 0.4 µM, partner dose 0.16 µM)",94.1%,183%,62.7%,113%,82.9%,217%,115%,100%,82.8%,135%
"CN(c1ncccc1CNc1nc(Nc2ccc3c(c2)CC(=O)N3)ncc1C(F)(F)F)S(C)(=O)=O + Cc1cc(N2CCOCC2)cc2[nH]c(-c3c(NC[C@@H](O)c4cccc(Cl)c4)cc[nH]c3=O)nc12 [BMS536924] (first compound 0.08 µM, partner dose 0.2 µM)",98%,85.3%,49.1%,203%,150%,171%,186%,181%,35.1%,96.8%

# Single records (already shown). Order of values: cleaved PARP positive nuclei fraction (501Mel) | cleaved PARP positive nuclei fraction (A101D) | cleaved PARP positive nuclei fraction (A2058) | cleaved PARP positive nuclei fraction (A375) | cleaved PARP positive nuclei fraction (C32) | cleaved PARP positive nuclei fraction (CBRC008) | cleaved PARP positive nuclei fraction (CBRC013) | cleaved PARP positive nuclei fraction (CBRC014) | cleaved PARP positive nuclei fraction (CBRC016) | cleaved PARP positive nuclei fraction (CBRC017)
# CS(=O)(=O)c1ccc(C(=O)Nc2ccc(Cl)c(-c3ccccn3)c2)c(Cl)c1 [vismodegib] + OCCn1cc(-c2cnc3nnn(Cc4ccc5ncccc5c4)c3n2)cn1 [PF04217903] (first compound 1 µM, partner dose 1 µM) as listed: 47.6% | 70% | 59.6% | 95.6% | 59.7% | 120% | 123% | 82.4% | 279% | 64.2%
# NC(=O)c1ccc(N(C(N)=O)c2c(F)cccc2F)nc1-c1ccc(F)cc1F + O=C(O)c1ccc(-c2c[nH]c3ncc(-c4ccccc4)cc23)cc1C1CCCC1 [GSK650394] (first compound 0.4 µM, partner dose 0.16 µM) as listed: 94.1% | 183% | 62.7% | 113% | 82.9% | 217% | 115% | 100% | 82.8% | 135%
